These are yes or no findings as the source states them, for the method shown. Binding seen in cells or lysates may run through a third protein. Some entries that bind do so weakly or less than the wild type. Where a sequence is shown, tags or fusion partners need not be part of it.
Columns and labels:
[1] = target: FLAG-ERα (human) (UniProt P03372); assay: co-IP; HEK293T cells co-transfected with a FLAG-tagged and a GFP-tagged protein; lysate precipitated with anti-FLAG affinity gel, immunoblot with anti-GFP antibody; for FLAG-ERα and GFP-Aurora-A in LEM4-depleted HEK293T-shLEM4 cells
[2] = target: T1, FLAG-LEM4 (human) (UniProt Q86XL3); assay: as above
T1 sequence: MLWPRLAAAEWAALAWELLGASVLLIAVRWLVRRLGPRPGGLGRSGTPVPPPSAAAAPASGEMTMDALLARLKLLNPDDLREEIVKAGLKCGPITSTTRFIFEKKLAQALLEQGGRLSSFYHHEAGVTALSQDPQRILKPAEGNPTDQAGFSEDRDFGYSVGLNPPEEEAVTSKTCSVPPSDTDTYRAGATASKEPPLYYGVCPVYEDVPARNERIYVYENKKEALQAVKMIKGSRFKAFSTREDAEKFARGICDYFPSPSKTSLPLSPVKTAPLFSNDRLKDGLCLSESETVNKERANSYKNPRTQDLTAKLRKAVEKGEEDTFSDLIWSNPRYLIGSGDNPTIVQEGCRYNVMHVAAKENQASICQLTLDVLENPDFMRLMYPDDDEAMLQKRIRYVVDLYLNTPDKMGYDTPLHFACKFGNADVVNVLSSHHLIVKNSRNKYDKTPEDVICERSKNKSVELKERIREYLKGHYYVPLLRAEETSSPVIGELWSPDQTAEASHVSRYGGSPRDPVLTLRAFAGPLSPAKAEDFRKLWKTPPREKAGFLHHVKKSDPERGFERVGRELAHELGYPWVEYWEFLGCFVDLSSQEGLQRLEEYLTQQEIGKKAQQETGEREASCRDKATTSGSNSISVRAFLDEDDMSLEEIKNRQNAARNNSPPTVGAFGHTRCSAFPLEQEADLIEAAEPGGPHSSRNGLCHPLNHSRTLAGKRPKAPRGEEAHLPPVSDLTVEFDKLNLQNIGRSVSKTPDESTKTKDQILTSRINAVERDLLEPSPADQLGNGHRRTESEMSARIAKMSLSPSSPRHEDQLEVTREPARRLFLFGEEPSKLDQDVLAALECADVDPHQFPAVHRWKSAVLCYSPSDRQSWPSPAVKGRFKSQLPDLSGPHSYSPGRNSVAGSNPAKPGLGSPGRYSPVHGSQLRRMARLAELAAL

Chains of the proteins cited; added tags and fusions are not shown.
UniProt P03372: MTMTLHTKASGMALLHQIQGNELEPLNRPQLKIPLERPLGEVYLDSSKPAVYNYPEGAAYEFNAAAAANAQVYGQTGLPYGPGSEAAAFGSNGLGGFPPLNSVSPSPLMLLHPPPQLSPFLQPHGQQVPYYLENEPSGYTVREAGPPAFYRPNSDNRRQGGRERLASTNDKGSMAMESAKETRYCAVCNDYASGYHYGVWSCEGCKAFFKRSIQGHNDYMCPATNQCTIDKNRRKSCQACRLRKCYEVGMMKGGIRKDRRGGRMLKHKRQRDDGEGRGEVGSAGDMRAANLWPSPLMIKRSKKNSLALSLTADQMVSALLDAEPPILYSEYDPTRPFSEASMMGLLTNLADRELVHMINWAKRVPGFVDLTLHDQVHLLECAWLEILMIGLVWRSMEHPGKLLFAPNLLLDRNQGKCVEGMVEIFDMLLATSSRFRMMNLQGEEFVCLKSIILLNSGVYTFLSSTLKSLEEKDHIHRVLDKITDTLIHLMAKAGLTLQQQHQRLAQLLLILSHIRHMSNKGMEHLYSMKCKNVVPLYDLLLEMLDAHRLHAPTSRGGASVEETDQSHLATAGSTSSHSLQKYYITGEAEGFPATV

binding [1]: binds
binding [2]: binds
B1: GFP-Aurora-A (protein, UniProt O14965 1-403)
chain: MDRSKENCISGPVKATAPVGGPKRVLVTQQFPCQNPLPVNSGQAQRVLCPSNSSQRIPLQAQKLVSSHKPVQNQKQKQLQATSVPHPVSRPLNNTQKSKQPLPSAPENNPEEELASKQKNEESKKRQWALEDFEIGRPLGKGKFGNVYLAREKQSKFILALKVLFKAQLEKAGVEHQLRREVEIQSHLRHPNILRLYGYFHDATRVYLILEYAPLGTVYRELQKLSKFDEQRTATYITELANALSYCHSKRVIHRDIKPENLLLGSAGELKIADFGWSVHAPSSRRTTLCGTLDYLPPEMIEGRMHDEKVDLWSLGVLCYEFLVGKPPFEANTYQETYKRISRVEFTFPDFVTEGARDLISRLLKHNPSQRPMLREVLEHPWITANSSKPSNCQNKESASKQS
